According to patent publication US5955325A, “Method for producing sulfated lactosamine oligosaccharide” (Seikagaku Kogyo Kabushiki Kaisha, priority 1996, dated 1999):

Tested on: β-galactosidase
Experiment: Sensitivity of desialylated 35SO4-transferred oligosaccharides to digestion with β-galactosidase (position of transferred sulfate)
Assay type: biochemical, Streptococcus
Conditions: after neuraminidase desialylation and β-galactosidase digestion; gel filtration

**Q.** `CC(=O)NC1C(O)OC(CO)C(OC2OC(CO)C(O)C(OC3OC(CO)C(OC4OC(CO)C(O)C(OC5(C(=O)O)CC(O)C(NC(C)=O)C(C(O)C(O)CO)O5)C4O)C(O)C3NC(C)=O)C2O)C1O` (centres unmarked) [SL1L1, NeuAcα2--3Galβ1--4GlcNAcβ1--3Galβ1--4GlcNAc] was tested. Which “Fraction of transferred 35SO4 positioned at the Gal residue on the non-reducing-end side (35S-radioactivity resistant to β-galactosidase)” value did it give?
**A.** about 1/3

**Q.** How did the “Fraction of transferred 35SO4 positioned at the Gal residue on the non-reducing-end side (35S-radioactivity resistant to β-galactosidase)” value turn out when `CC(=O)NC1C(O)OC(COS(=O)(=O)O)C(OC2OC(COS(=O)(=O)O)C(O)C(OC3OC(COS(=O)(=O)O)C(OC4OC(CO)C(O)C(OC5(C(=O)O)CC(O)C(NC(C)=O)C(C(O)C(O)CO)O5)C4O)C(O)C3NC(C)=O)C2O)C1O` [SL2L4, NeuAcα2--3Galβ1--4GlcNAc(6S)β1--3Gal(6S)β1--4GlcNAc(6S)] was run?
**A.** all
